The values that follow come from paper PMC12693566.

Numbering of substitutions follows the chain as printed. Numbers in names are those of the source. These are yes or no findings as the source states them, for the method shown. In cells and extracts the contact can be indirect. Some entries that bind do so weakly or less than the wild type. Tags and fused reporters may be left off the sequences shown.

This assay addresses T1, GFP-fused RIC-8 (C. elegans) (UniProt Q9GSX9).
T1 sequence: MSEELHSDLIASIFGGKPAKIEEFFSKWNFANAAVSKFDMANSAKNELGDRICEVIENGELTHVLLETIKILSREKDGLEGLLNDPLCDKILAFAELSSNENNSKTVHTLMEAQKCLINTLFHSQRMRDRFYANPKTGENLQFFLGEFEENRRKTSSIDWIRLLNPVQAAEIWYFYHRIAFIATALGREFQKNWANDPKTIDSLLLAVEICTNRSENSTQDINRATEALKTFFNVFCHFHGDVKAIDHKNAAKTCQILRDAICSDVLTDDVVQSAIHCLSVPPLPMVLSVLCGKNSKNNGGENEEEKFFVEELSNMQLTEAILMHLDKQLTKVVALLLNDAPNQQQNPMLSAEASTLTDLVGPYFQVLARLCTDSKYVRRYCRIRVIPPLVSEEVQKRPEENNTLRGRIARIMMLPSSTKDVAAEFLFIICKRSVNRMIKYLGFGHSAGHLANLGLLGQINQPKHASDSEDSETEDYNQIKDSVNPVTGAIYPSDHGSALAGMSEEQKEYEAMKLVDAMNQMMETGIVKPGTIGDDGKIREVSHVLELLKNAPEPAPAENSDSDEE
In words: FRET or BRET; FRET-FLIM in vivo in AWC neurons of C. elegans; GFP lifetime of RIC-8::GFP alone or co-expressed with TagRFP-tagged ODR-3.

B1: TagRFP-tagged ODR-3^WT (protein, UniProt Q18434 1-356)
chain: MGSCQSNENSEGNARNKEIEKQLNADKRAGSSIVKLLLLGAGECGKSTVLKQMQILHSNGFTEEEVNEKRAIVYNNTVSAMCTILRAMDGVLHLPLENGQKEAEKAIVMKVQENGEEGEALTEEVSKAIQSLWADPGVKKAFEMRSEYQLPDSAKYFLDNCQRISEPGYRPNDQDILYSRVATTGVVEVKFKIKELDFRVFDVGGQRSERRKWIHCFDNVESIIFITAISEYDQVLFEDETTNRMIESMQLFNSICNSTWFLSTAMILFMNKKDLFMEKIQRVNITTAFPDYEGGQNYEEAVSFIKQKFAELNLNPDKKTIYMHETCATDTNQVQLVISSVIDTIIQKNLQKAGMM
For the molecule B1, the binding entry is “binds”.

B2: TagRFP-tagged ODR-3^A328P (protein, UniProt Q18434 1-356)
chain: B1 chain with A328P
Regarding B2, the binding entry is given as “binds”.
